Source: patent US20230212294A1

Tests used:
[1] = biological target: B7-H3 on CHOK cells overexpressing B7-H3; experiment: flow cytometry on CHO cells that artificially express B7-H3
[2] = biological target: monkey B7-H3-his (monkey); experiment: ELISA, monkey B7-H3-his coated at 2 µg/mL

Row | Binder | binding [1] | binding [2]
1 | IL-P6-D06 (antibody, V domains shown) VH: QVQLQQSGPELVRPGVSVKISCKGSGYTFTDYAIHWVKQSHAKSLEWIGVINTYSGNTNYNQKFKGRATMTVDKSSSTAYMELARLTSEDSAIYFCARGVTYGSGYPYWYFDVWGAGTTVTVSS VL: DIVMTQSQKFMSTSVGDRVSVTCKASQNVGTNVAWYQQKPGQSPKALIYSASYRYSGVPDRFTGSGSGTDFTLTISNVQSEDLAEYFCQQYNSYPYTFGGGTKLEIK | binds | 
2 | IL-P5-B01 (antibody, V domains shown) VH: EVQLQESGPSLVKPSQTLSLTCSVTGDSITSGSWNWIRKFPGNKLEYMGYISYSGSIYYNPSLKSRISITRDTSKNQYYLQLNSVTTEDTATYYCARGNPAWFAYWGQGTLVTVSA VL: DIVMTQSQKFMSTSVGDRVSVTCKASQNVGTNVAWYQQKPGQSPKALIYSASYRYSGVPDRFTGSGSGTDFTLTISNVQSEDLAEYFCQQYNSYPYTFGGGTKLEIK | binds | 
3 | IL-P7-A06 (antibody, V domains shown) VH: QVQLQQSGPEVVRPGVSVKISCKGSGYTFTDYAMHWVKQSHAKSLEWIGIINTYNGNTNYNQKFKGKATMTVDKSSSTAYMEFARLTSEDSAIYYCARSRGPWDRYFDVWGAGTTVTVSS VL: DIVMTQSQKFMSTSVGDRVSVTCKASQNVGTAVAWYQQKPGQSPKLLIYSASNRYTGVPDRFTGSGSGTDFTLTISNMQSEDLADYFCQQYSSYPFTFGSGTKLEIK | binds | no binding

No constants are given. Whether binding was seen depends on the method and setting. For some of these results: Binding calls can cover weak binding; strength is not graded here.
